# Laboratory results taken from PMC7819943, “Rice protein-binding microarrays: a tool to detect cis-acting elements near promoter regions in rice”.
# By UniProt entry, the sequences of proteins in these tests, tags left out.
# UniProt Q0JBA9, entry or part of it: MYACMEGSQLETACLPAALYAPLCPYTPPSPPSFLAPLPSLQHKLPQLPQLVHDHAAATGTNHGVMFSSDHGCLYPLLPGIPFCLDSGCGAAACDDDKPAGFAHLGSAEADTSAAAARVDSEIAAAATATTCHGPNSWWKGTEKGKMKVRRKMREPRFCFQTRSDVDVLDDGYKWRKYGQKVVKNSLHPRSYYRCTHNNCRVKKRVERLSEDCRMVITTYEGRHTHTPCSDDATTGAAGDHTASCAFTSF
# The other results are listed elsewhere or left out.
# Target: OsWRKY34 (Oryza sativa, UniProt Q0JBA9 1-250)
# Experiment: protein-binding microarray (RPBM); PBS, 2% BSA, 51.3 ng/ul salmon testes DNA, 50 uM zinc acetate, 200 nM TF, 25 C, 1 h; high values mean tight binding
# Conditions: protein: recombinant; tags: N-terminal polyhistidine and DsRed monomer fusion (pET32a); label: CyDye5-dUTP incorporated in the synthesized complementary strand; 3' TTTTT single-stranded linker to array surface; dsDNA, one strand shown
# Procedure, shortened: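 Polyhistidine-tagged DsRed fusions of transcription factors, joined at the N-terminus, were expressed in E. coli BL21-CodonPlus and isolated on Ni–NTA. They were incubated at 200 nM for 1 h at 25 °C on a custom Agilent array, double-stranded and BSA-blocked, in PBS with 2% BSA, salmon testes DNA and 50 µM zinc acetate. The binding signal is per-feature fluorescence intensity (arbitrary units) read on an Axon 4000B scanner after washing.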
row,Sequence,binding signal
1,CTTAGATGATGCTTGTTTTTCTTTCTTTTGGTTTGTTTACCGGAGTCACCTAGTGCAG,8950 fluorescence intensity (a.u.)
2,ATCGTCGTCTCGGTCGTCGTTGTCGTCGTCCCGGTCTTCGCGGAGTCACCTAGTGCAG,10500 fluorescence intensity (a.u.)
3,CGTTGTCGCCACCACCACCGCCGCCGTCGCCACAACTCCGCGGAGTCACCTAGTGCAG,20500 fluorescence intensity (a.u.)
4,TATATTAGACGTTCGACCTGTTTAGTTGTTGTTTAAGCTCCGGAGTCACCTAGTGCAG,9440 fluorescence intensity (a.u.)
5,GCATCCCTGCATTACAAAACCATTCCGTGTCTGTCTACTACGGAGTCACCTAGTGCAG,8290 fluorescence intensity (a.u.)
6,CCGTCCAAAACTACCCATCTGCCACGTGGCACCCGCCCATCGGAGTCACCTAGTGCAG,8510 fluorescence intensity (a.u.)
7,AAAATTAACAATAATCCTGCCCTGTCTGGCCACTTCCTGTCGGAGTCACCTAGTGCAG,8280 fluorescence intensity (a.u.)
8,ATGTGCAGGTGGTGGTGGGGCTTGCTTATCAGCTAAAACCCGGAGTCACCTAGTGCAG,10000 fluorescence intensity (a.u.)
9,ACTGCTATCTTTGTCCCATAATATTTGTATTTTTAGGATTCGGAGTCACCTAGTGCAG,8030 fluorescence intensity (a.u.)
10,ATATATTTTCATATGTTATAATTTTGTTGCTACAAACTCTCGGAGTCACCTAGTGCAG,8040 fluorescence intensity (a.u.)
11,GAAATTCTCGTAATTATGAATCATCCCGTACTATTCGCAGCGGAGTCACCTAGTGCAG,8280 fluorescence intensity (a.u.)
12,TGTTCATCCGTCGTCAGACCTGTTACCAGATCTGGACTTCCGGAGTCACCTAGTGCAG,9690 fluorescence intensity (a.u.)
13,CCACCGGCACATGTCCTCATTCTCGCGCCATGGTCCCTGACGGAGTCACCTAGTGCAG,10500 fluorescence intensity (a.u.)
14,GGGTAAGTGATCAATGTTTTTCTTTACCGCAGCTTGTTTTCGGAGTCACCTAGTGCAG,11900 fluorescence intensity (a.u.)
15,ATGCTCAATGCCACGACCACATCACGCCAGCCACCCACTGCGGAGTCACCTAGTGCAG,8180 fluorescence intensity (a.u.)
16,TTGACCCTATCTCCTCTTCGCCGCTTTATCCTGCCCATTTCGGAGTCACCTAGTGCAG,11700 fluorescence intensity (a.u.)
17,CATTGTGTTGGATTGCACTGTTTTTATTTTCAAGATGTAACGGAGTCACCTAGTGCAG,10300 fluorescence intensity (a.u.)
18,GTTCTGTTCTAATTCTCACGCTAGTTCATGTGCCACACCTCGGAGTCACCTAGTGCAG,11700 fluorescence intensity (a.u.)
19,CCCTCTCATTATTTATTTCCTCGTATCTCCAGCCGCACACCGGAGTCACCTAGTGCAG,8130 fluorescence intensity (a.u.)
20,GACTCGTTAAGTTCTTATATTGTGGAATCCTGTCTTTTAACGGAGTCACCTAGTGCAG,8740 fluorescence intensity (a.u.)
21,CATCTGTATTTCCAAATTTGTATATTTACCATTTGTGTTTCGGAGTCACCTAGTGCAG,9320 fluorescence intensity (a.u.)

row,Sequence,binding signal
1,TGACGACGCTTATCTCGTTATCTCGTTTGTTTGTCATATGCGGAGTCACCTAGTGCAG,12500 fluorescence intensity (a.u.)
2,AGCGGTGTGTTGAGATTGGTAGCTGAAAGGCCTCTTCTTCCGGAGTCACCTAGTGCAG,8320 fluorescence intensity (a.u.)
3,ACCACTACGCCTCCACCTCCACACCTCACCTCCTCCACCTCGGAGTCACCTAGTGCAG,10400 fluorescence intensity (a.u.)
4,GGGGCCCACATGTCATTCTCACCGACGCCCCATCCCTTCTCGGAGTCACCTAGTGCAG,8110 fluorescence intensity (a.u.)
5,CTGTAAACATATCCTCATTTTGGTTCGTCTATCAGTCACGCGGAGTCACCTAGTGCAG,9680 fluorescence intensity (a.u.)
6,ATGCCTTGTACTTCCCACCTAACCAACTGTGCAGAAAGATCGGAGTCACCTAGTGCAG,8510 fluorescence intensity (a.u.)
7,CTATCGTTATTTACACGTGATTTAAATAGTTATGAATTTTCGGAGTCACCTAGTGCAG,8140 fluorescence intensity (a.u.)
8,AAGTAATCGGCGCCGTCTTTTCTTCCTTCACGCCAGCATCCGGAGTCACCTAGTGCAG,8620 fluorescence intensity (a.u.)
9,TTTGATTTTAATTCTAGGGGTAGTATATTTGCCGGCTTTGCGGAGTCACCTAGTGCAG,8350 fluorescence intensity (a.u.)
10,ATGGTTTTCCGCATCCAACTTTGATCATCCATCTTATTTACGGAGTCACCTAGTGCAG,12800 fluorescence intensity (a.u.)
11,TATCCATTTTTCCCATCACCTATAGCCCCTACCACACTTCCGGAGTCACCTAGTGCAG,9420 fluorescence intensity (a.u.)
12,AGTTCACCTCCCTAACCTTTGCCTCTCACTCACACAAAGTCGGAGTCACCTAGTGCAG,8050 fluorescence intensity (a.u.)
13,ACCCCACCAAGAACACAGCCTAAATTTTGATATTTATGATCGGAGTCACCTAGTGCAG,8720 fluorescence intensity (a.u.)
14,AACCAAAATGCATTTTCATATCCACTGTTTGTCTGTGTTGCGGAGTCACCTAGTGCAG,9110 fluorescence intensity (a.u.)
15,TTTATTTTATTTTATACTGATGCATGTTAACTTACTGTGCCGGAGTCACCTAGTGCAG,8840 fluorescence intensity (a.u.)
16,ACTATGCACCAGTACAATTTACAGCAGTATTAATGCTTACCGGAGTCACCTAGTGCAG,8550 fluorescence intensity (a.u.)
17,TCAGAACAGACTCATAAACCATTTGTCAGACTTTTCCTACCGGAGTCACCTAGTGCAG,9320 fluorescence intensity (a.u.)
18,TCCATACGCAGGTACTCCTCCTACTAATTAGTAGTGCTGTCGGAGTCACCTAGTGCAG,8300 fluorescence intensity (a.u.)
19,TGTCCGCCACTCCACCCGATCACAGAAAACACACGCGCGTCGGAGTCACCTAGTGCAG,8750 fluorescence intensity (a.u.)
20,TCGCGGAACCACCACATCATCTCATCAGCCACCAGTTAGCCGGAGTCACCTAGTGCAG,8030 fluorescence intensity (a.u.)
21,ATTCTCGGTCGATCGGTGTTCGTTTTCGACTTTCTACCGGCGGAGTCACCTAGTGCAG,8400 fluorescence intensity (a.u.)

# As a short view, part of the list above.
row,Sequence,binding signal
16,ACTATGCACCAGTACAATTTACAGCAGTATTAATGCTTACCGGAGTCACCTAGTGCAG,8550 fluorescence intensity (a.u.)
17,TCAGAACAGACTCATAAACCATTTGTCAGACTTTTCCTACCGGAGTCACCTAGTGCAG,9320 fluorescence intensity (a.u.)
18,TCCATACGCAGGTACTCCTCCTACTAATTAGTAGTGCTGTCGGAGTCACCTAGTGCAG,8300 fluorescence intensity (a.u.)
19,TGTCCGCCACTCCACCCGATCACAGAAAACACACGCGCGTCGGAGTCACCTAGTGCAG,8750 fluorescence intensity (a.u.)

# Reformatted: results already given.
row	Sequence	binding signal
11	TATCCATTTTTCCCATCACCTATAGCCCCTACCACACTTCCGGAGTCACCTAGTGCAG	9420 fluorescence intensity (a.u.)
18	TCCATACGCAGGTACTCCTCCTACTAATTAGTAGTGCTGTCGGAGTCACCTAGTGCAG	8300 fluorescence intensity (a.u.)

# Following part

row,Sequence,binding signal
1,ATTATGTGTCTAAGGTATGTGGGTTCAGTGGTAAATCTTTCGGAGTCACCTAGTGCAG,8500 fluorescence intensity (a.u.)
2,TCTGGTTTTGTAATTAGGGGACGATTTTGTATCTCGATGACGGAGTCACCTAGTGCAG,8500 fluorescence intensity (a.u.)
3,CGAGTTTGTTTCCTGCTGTCTGTGCGATAATGTTTTCTGCCGGAGTCACCTAGTGCAG,9000 fluorescence intensity (a.u.)
4,GCTGGTCTTTGGGCTTGTGTGCGTGTTCCAACTGTCGCATCGGAGTCACCTAGTGCAG,8180 fluorescence intensity (a.u.)
5,GTATTGTGTATTGCAAGGCAAATTGTTTGTTTTTGAGCGACGGAGTCACCTAGTGCAG,9040 fluorescence intensity (a.u.)
6,GCCACACATTGCATCATCTACTGTAGGACTAAATCAATCTCGGAGTCACCTAGTGCAG,9360 fluorescence intensity (a.u.)
7,CTTGACCCTGCATGTTCATCATGTGCAGCATACATATATACGGAGTCACCTAGTGCAG,9640 fluorescence intensity (a.u.)
8,TCTCGCTCGTTTTACCGCAGCATTTTGTTGTTGCTCTAGCCGGAGTCACCTAGTGCAG,8620 fluorescence intensity (a.u.)
9,CTGCGTCGCCGTCTCCGGCGCCATGCTCGTCCTGCTCCTCCGGAGTCACCTAGTGCAG,9850 fluorescence intensity (a.u.)
10,TTGTACTATTGGGTTCTAGATCTAACCTTCCCATGTGCTTCGGAGTCACCTAGTGCAG,8440 fluorescence intensity (a.u.)
11,CTGAGCACGTCGCTACGCACAGCTTCTGCCTGAATTTCGTCGGAGTCACCTAGTGCAG,8670 fluorescence intensity (a.u.)
12,TGCTTTGGGACCACTCCCTCTCTCTTTCTCTCTCTCACTTCGGAGTCACCTAGTGCAG,10200 fluorescence intensity (a.u.)
13,TAACTTTTCCATTGTGTCGTTCCAATTTCAACTAAACTTCCGGAGTCACCTAGTGCAG,10300 fluorescence intensity (a.u.)
14,CCAACGGGAGGCCTGCAAAATTGTCGCGATGTGCCCCTTCCGGAGTCACCTAGTGCAG,8250 fluorescence intensity (a.u.)
15,CATCCGCCATCTCATCTAATCTCATCCGTCCATCGCTATCCGGAGTCACCTAGTGCAG,8220 fluorescence intensity (a.u.)
16,TCTTTTTCGGAAGTTTTTTTTTTCTTCCCCTCTCGTTCTCCGGAGTCACCTAGTGCAG,8160 fluorescence intensity (a.u.)
17,ACCTTTCCTTTCATCTCTTCCGCTGGTTTTGTGGGATATTCGGAGTCACCTAGTGCAG,12800 fluorescence intensity (a.u.)
18,TTTCGATACCGTTTTCATTTTATTCTTTACTGTTTTCGATCGGAGTCACCTAGTGCAG,10500 fluorescence intensity (a.u.)
19,ACATTCCCTTGTTGTTTCCTTGTCATCTAAATTGTTATAACGGAGTCACCTAGTGCAG,12400 fluorescence intensity (a.u.)
20,TGGGTGGTGTTGGTTTTGCATGGTAGACGCGGGGTCCGATCGGAGTCACCTAGTGCAG,18400 fluorescence intensity (a.u.)
21,GGGTAGTAGTCAGCTACTCGAAGTAGGGTTAGGTTCATAGCGGAGTCACCTAGTGCAG,8820 fluorescence intensity (a.u.)

row,Sequence,binding signal
1,CTTCGCTTCTTCTGCCTCTGCAGCAATGCTATGTTTAATTCGGAGTCACCTAGTGCAG,11100 fluorescence intensity (a.u.)
2,TCTGTCCCATCACCAGAACATTTTGGCGTGTTATACGTCGCGGAGTCACCTAGTGCAG,8350 fluorescence intensity (a.u.)
3,TGGTTTATCTAACTATCTTGGTCTAACTGCCAACATCTTCCGGAGTCACCTAGTGCAG,9550 fluorescence intensity (a.u.)
4,GGTTAATTTCTAGGGTATGGTGATGGTAATGTTGCGGCGACGGAGTCACCTAGTGCAG,10600 fluorescence intensity (a.u.)
5,TTTTGACCAACGTTTGACTATTCGTTTTATTCAAATTTTTCGGAGTCACCTAGTGCAG,9930 fluorescence intensity (a.u.)
6,TTGCTTTATACTCCTTCCGTTCCAAAATGACCATCGTATACGGAGTCACCTAGTGCAG,8140 fluorescence intensity (a.u.)
7,TCGGGTTAGAGCCTCTCTCTCTCTCTCTCTCTCTCTCTCTCGGAGTCACCTAGTGCAG,9360 fluorescence intensity (a.u.)
8,ATCAAGATAGTTCGGCCCATCCTAGCTTTTAGTCCATCACCGGAGTCACCTAGTGCAG,8150 fluorescence intensity (a.u.)
9,TGGACCGTGGTTTTGGCTGCTCCTCCGGTTCGCCGGCGGCCGGAGTCACCTAGTGCAG,8120 fluorescence intensity (a.u.)
10,CAATGGTATATTAATCCTGCCATGTTACAAATCAGCGCTACGGAGTCACCTAGTGCAG,8100 fluorescence intensity (a.u.)
11,TCCTCTTCCCACGCGCCGCCGCCGCCGCCGCCGCTGCCGCCGGAGTCACCTAGTGCAG,10200 fluorescence intensity (a.u.)
12,ATAGAGCTTTAAATGTATTTGTGTAGTTTATTTCACATATCGGAGTCACCTAGTGCAG,8730 fluorescence intensity (a.u.)
13,CGCTCACTCGGTTTGGTTTGGTTTGGATTGTATTGGGTTGCGGAGTCACCTAGTGCAG,39200 fluorescence intensity (a.u.)
14,GTTTATGTACCCCGGCCGGTCCTGGACAGGGATTTTAATGCGGAGTCACCTAGTGCAG,9640 fluorescence intensity (a.u.)
15,TACCATATCATGCTATTTCACTTCATTTAGAAATGAATGCCGGAGTCACCTAGTGCAG,8420 fluorescence intensity (a.u.)
16,CCGGATTAGACCTACATTACCATTCGAGCAACAACTTTCCCGGAGTCACCTAGTGCAG,9020 fluorescence intensity (a.u.)
17,AGCAAGCCACTCGCAAATTTTCGCATTTTTTCTTTGCCGCCGGAGTCACCTAGTGCAG,8310 fluorescence intensity (a.u.)
18,TCTCCATGTCACGCCGGCTGCCACCACCACGGTATAAAATCGGAGTCACCTAGTGCAG,8990 fluorescence intensity (a.u.)
19,TAGCTCCATCGATCGCCCCGGCTCAACACGATCACAATCCCGGAGTCACCTAGTGCAG,8800 fluorescence intensity (a.u.)
20,CTATACTACTCATTCCGTCTTAAAATACAAATACTTTTAGCGGAGTCACCTAGTGCAG,8210 fluorescence intensity (a.u.)
21,CAAGCTAAGTCCAGCTCGTGATGCTCATTCTCTCAGACTGCGGAGTCACCTAGTGCAG,8170 fluorescence intensity (a.u.)
